This is an account of results in paper PMC12091997.

Results are given in words; binding and its absence hold for the method and conditions named. In cells and extracts the contact can be indirect. Some results given as binding are weak or reduced against the parent protein; the word gives no strength. Where a sequence is shown, tags or fusion partners need not be part of it.

For this assay, the target named is T1, Myc-CASP4 C258A (human caspase-4, catalytic cysteine mutant) (human) (UniProt P49662).
T1 sequence: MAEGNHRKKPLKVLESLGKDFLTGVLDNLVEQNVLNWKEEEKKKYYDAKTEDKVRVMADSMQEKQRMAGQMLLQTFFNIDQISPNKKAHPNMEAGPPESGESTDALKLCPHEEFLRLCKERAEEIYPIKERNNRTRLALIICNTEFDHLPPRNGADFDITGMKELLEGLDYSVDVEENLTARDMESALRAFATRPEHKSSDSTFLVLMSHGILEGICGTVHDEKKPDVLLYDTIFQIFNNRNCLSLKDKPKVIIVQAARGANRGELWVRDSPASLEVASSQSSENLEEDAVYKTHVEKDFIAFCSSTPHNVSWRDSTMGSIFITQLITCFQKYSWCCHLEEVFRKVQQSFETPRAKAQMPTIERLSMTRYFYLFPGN
The experiment in a line: co-IP; Flag-GSDMD L192D co-immunoprecipitated by Myc-CASP4 C258A in wild-type and GBP^Δ1q22.2 mutant HeLa cells.

B1: Flag-GSDMD L192D (human Gasdermin D) (protein, UniProt P57764 1-484)
chain: MGSAFERVVRRVVQELDHGGEFIPVTSLQSSTGFQPYCLVVRKPSSSWFWKPRYKCVNLSIKDILEPDAAEPDVQRGRSFHFYDAMDGQIQGSVELAAPGQAKIAGGAAVSDSSSTSMNVYSLSVDPNTWQTLLHERHLRQPEHKVLQQLRSRGDNVYVVTEVLQTQKEVEVTRTHKREGSGRFSLPGATCDQGEGQGHLSQKKTVTIPSGSTLAFRVAQLVIDSDLDVLLFPDKKQRTFQPPATGHKRSTSEGAWPQLPSGLSMMRCLHNFLTDGVPAEGAFTEDFQGLRAEVETISKELELLDRELCQLLLEGLEGVLRDQLALRALEEALEQGQSLGPVEPLDGPAGAVLECLVLSSGMLVPELAIPVVYLLGALTMLSETQHKLLAEALESQTLLGPLELVGSLLEQSAPWQERSTMSLPPGLLGNSWGEGAPAWVLLDECGLELGEDTPHVCWEPQAQGRMCALYASLALLSGLSQEPH
Take B1: the binding result is “binds”.
